# Data: publication doi:10.1101/2022.06.27.497790
# Chains of the proteins cited; added tags and fusions are not shown. Residues count along the entry.
# UniProt P14625, residues 22-803: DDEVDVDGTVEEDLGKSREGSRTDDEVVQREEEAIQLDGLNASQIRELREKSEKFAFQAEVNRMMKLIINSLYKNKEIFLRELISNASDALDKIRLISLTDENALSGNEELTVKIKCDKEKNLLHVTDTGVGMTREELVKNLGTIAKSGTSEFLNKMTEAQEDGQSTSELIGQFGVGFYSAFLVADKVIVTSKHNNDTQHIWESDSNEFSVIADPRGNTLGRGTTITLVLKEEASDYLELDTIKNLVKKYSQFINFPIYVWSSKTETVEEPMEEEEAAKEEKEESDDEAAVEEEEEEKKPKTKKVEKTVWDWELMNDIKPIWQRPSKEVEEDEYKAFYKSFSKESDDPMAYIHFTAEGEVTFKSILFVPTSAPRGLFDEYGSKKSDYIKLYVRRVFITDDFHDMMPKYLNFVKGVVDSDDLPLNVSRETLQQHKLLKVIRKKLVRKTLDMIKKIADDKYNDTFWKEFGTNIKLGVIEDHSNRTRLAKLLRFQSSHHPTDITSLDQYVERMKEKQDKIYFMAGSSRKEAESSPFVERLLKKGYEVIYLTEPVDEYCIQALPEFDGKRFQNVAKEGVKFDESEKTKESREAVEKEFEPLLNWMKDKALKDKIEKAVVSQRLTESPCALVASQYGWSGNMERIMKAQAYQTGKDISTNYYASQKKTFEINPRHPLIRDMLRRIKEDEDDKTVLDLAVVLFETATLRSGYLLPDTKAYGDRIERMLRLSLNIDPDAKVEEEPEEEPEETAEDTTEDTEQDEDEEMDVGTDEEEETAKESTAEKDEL
# UniProt Q9UGP8: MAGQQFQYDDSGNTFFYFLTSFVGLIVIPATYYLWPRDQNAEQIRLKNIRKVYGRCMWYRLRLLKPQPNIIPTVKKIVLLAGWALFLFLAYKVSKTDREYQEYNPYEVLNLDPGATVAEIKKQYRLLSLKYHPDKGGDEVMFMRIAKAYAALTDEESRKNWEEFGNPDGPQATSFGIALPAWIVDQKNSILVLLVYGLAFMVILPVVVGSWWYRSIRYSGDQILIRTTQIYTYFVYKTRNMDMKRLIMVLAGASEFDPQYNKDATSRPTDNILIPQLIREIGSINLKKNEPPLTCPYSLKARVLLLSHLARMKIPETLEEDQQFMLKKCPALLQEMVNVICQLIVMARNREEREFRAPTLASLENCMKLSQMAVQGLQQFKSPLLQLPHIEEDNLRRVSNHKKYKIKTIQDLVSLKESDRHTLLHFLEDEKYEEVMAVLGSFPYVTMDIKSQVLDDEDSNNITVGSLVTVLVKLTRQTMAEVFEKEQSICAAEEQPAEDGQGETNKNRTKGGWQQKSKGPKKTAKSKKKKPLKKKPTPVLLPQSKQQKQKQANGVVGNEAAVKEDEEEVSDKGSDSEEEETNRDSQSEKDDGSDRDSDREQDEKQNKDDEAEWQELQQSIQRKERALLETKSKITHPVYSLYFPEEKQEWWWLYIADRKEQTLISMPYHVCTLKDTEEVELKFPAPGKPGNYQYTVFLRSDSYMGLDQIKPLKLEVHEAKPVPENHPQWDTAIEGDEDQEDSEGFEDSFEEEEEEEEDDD
# UniProt P11021, residues 19-654: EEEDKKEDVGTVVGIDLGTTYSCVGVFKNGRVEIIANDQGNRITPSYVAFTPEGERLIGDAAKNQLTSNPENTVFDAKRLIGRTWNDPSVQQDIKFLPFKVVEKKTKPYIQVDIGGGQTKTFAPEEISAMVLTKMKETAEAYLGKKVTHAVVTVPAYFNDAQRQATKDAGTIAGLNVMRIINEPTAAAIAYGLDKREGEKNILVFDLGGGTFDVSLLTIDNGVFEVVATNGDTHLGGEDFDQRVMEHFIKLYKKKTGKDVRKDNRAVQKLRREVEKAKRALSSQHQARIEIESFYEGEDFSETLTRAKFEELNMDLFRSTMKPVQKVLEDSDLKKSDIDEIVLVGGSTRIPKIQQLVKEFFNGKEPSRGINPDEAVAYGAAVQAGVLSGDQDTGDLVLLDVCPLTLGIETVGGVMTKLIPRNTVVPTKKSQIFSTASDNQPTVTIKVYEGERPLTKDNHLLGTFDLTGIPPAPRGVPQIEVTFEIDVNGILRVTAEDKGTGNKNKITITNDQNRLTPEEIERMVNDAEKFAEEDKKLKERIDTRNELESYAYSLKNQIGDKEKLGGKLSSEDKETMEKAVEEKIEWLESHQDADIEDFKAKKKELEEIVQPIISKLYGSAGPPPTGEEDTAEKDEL
# UniProt Q9UBS4, residues 23-358: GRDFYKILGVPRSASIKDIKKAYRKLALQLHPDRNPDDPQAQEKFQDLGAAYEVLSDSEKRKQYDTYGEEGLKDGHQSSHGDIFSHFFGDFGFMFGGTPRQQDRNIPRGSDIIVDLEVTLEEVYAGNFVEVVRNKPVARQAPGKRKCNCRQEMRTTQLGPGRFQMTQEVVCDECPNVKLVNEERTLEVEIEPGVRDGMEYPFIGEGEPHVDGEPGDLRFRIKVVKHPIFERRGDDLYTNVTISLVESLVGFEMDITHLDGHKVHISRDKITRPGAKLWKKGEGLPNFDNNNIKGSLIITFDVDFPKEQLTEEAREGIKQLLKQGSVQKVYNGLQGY
# UniProt Q969V3, residues 43-563: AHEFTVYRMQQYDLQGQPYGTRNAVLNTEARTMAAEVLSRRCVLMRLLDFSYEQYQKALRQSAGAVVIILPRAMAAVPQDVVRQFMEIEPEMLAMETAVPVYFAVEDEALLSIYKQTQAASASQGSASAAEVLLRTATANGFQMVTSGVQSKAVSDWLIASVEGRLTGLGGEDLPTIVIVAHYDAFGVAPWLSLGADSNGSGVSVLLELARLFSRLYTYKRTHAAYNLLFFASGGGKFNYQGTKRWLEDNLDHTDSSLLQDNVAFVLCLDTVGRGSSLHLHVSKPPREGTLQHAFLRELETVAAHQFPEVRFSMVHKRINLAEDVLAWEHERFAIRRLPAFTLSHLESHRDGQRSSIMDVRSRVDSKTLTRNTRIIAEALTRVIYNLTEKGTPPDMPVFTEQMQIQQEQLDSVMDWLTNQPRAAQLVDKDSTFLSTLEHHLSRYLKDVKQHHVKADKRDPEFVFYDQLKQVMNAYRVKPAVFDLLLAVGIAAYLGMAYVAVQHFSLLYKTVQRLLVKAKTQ
# UniProt P23284, residues 34-216: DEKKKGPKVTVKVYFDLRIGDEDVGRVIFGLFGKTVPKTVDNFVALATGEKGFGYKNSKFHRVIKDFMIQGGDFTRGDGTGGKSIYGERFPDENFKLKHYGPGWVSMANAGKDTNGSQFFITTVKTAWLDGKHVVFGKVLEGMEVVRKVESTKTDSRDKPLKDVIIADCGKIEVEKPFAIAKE
# UniProt P27824, residues 21-592: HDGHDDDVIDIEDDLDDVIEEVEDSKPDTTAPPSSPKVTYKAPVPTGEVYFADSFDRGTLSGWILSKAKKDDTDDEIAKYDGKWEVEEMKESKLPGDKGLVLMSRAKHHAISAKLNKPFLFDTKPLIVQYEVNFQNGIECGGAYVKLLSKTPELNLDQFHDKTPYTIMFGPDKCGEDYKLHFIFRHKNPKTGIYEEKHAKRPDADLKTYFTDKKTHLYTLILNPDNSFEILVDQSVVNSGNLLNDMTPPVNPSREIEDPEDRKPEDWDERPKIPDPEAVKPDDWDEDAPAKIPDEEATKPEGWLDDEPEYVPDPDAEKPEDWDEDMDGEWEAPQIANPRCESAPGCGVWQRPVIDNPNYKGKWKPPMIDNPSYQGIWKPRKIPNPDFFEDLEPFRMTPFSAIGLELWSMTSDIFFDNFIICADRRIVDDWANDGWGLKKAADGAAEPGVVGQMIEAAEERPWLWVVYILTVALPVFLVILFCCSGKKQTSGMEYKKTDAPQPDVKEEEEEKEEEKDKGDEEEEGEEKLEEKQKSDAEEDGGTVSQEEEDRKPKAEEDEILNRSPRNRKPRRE
# UniProt Q15005: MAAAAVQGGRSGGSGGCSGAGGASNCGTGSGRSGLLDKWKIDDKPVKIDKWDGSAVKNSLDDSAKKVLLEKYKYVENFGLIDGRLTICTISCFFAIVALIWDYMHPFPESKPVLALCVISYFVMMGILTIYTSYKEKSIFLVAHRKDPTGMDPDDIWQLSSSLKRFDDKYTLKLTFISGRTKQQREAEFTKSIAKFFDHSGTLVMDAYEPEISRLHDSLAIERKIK
# These are yes or no findings as the source states them, for the method shown. In cells and extracts the contact can be indirect. A yes stands for co-enrichment or nearness to the bait. Other partners may have been found. Sequences can lack the tags named with a protein.
# T1: Hspa13^Flag (human (cDNA from HEK293T)) (UniProt P48723)
# T1 sequence: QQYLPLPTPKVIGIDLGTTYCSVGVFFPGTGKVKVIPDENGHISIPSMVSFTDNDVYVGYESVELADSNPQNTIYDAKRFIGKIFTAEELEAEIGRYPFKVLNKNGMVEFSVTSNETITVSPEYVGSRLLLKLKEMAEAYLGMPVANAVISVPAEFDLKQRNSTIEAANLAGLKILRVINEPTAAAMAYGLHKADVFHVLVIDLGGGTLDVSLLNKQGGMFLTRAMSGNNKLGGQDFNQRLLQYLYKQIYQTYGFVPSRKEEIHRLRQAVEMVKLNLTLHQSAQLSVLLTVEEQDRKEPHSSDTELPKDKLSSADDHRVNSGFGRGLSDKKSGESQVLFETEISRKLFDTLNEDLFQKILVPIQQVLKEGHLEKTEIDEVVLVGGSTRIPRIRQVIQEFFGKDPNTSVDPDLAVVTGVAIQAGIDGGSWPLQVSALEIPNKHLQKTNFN
# Target: T1, Hspa13^Flag (human (cDNA from HEK293T))
# Experiment: affinity purification with mass spectrometry
row,binding,Molecule
1,binds,Erp29 (from UniProt P30040 33-261)
2,binds,Grp94/HSPB90B1 (from UniProt P14625 22-803)
3,binds,Sec63 (from UniProt Q9UGP8 1-760)
4,binds,BiP (from UniProt P11021 19-654)
5,binds,ERdj3/DNAJB11 (from UniProt Q9UBS4 23-358)
6,binds,NCLN (from UniProt Q969V3 43-563)
7,binds,PPIB (from UniProt P23284 34-216)
8,binds,calnexin (from UniProt P27824 21-592)
9,binds,SPCS2 (from UniProt Q15005 1-226)
10,binds,"MAGT1 (protein, UniProt Q9H0U3 30-335) QRKKEMVLSEKVSQLMEWTNKRPVIRMNGDKFRRLVKAPPRNYSVIVMFTALQLHRQCVVCKQADEEFQILANSWRYSSAFTNRIFFAMVDFDEGSDVFQMLNMNSAPTFINFPAKGKPKRGDTYELQVRGFSAEQIARWIADRTDVNIRVIRPPNYAGPLMLGLLLAVIGGLVYLRRSNMEFLFNKTGWAFAALCFVLAMTSGQMWNHIRGPPYAHKNPHTGHVNYIHGSSQAQFVAETHIVLLFNGGVTLGMVLLCEAATSDMDIGKRKIMCVAGIGLVVLFFSWMLSIFRSKYHGYPYSFLMS"
11,binds,"DDOST (protein, UniProt P39656 43-456) SGPRTLVLLDNLNVRETHSLFFRSLKDRGFELTFKTADDPSLSLIKYGEFLYDNLIIFSPSVEDFGGNINVETISAFIDGGGSVLVAASSDIGDPLRELGSECGIEFDEEKTAVIDHHNYDISDLGQHTLIVADTENLLKAPTIVGKSSLNPILFRGVGMVADPDNPLVLDILTGSSTSYSFFPDKPITQYPHAVGKNTLLIAGLQARNNARVIFSGSLDFFSDSFFNSAVQKAAPGSQRYSQTGNYELAVALSRWVFKEEGVLRVGPVSHHRVGETAPPNAYTVTDLVEYSIVIQQLSNGKWVPFDGDDIQLEFVRIDPFVRTFLKKKGGKYSVQFKLPDVYGVFQFKVDYNRLGYTHLYSSTQVSVRPLQHTQYERFIPSAYPYYASAFSMMLGLFIFSIVFLHMKEKEKSD"
12,binds,"STT3B (protein, UniProt Q8TCJ2 1-826) MAEPSAPESKHKSSLNSSPWSGLMALGNSRHGHHGPGAQCAHKAAGGAAPPKPAPAGLSGGLSQPAGWQSLLSFTILFLAWLAGFSSRLFAVIRFESIIHEFDPWFNYRSTHHLASHGFYEFLNWFDERAWYPLGRIVGGTVYPGLMITAGLIHWILNTLNITVHIRDVCVFLAPTFSGLTSISTFLLTRELWNQGAGLLAACFIAIVPGYISRSVAGSFDNEGIAIFALQFTYYLWVKSVKTGSVFWTMCCCLSYFYMVSAWGGYVFIINLIPLHVFVLLLMQRYSKRVYIAYSTFYIVGLILSMQIPFVGFQPIRTSEHMAAAGVFALLQAYAFLQYLRDRLTKQEFQTLFFLGVSLAAGAVFLSVIYLTYTGYIAPWSGRFYSLWDTGYAKIHIPIIASVSEHQPTTWVSFFFDLHILVCTFPAGLWFCIKNINDERVFVALYAISAVYFAGVMVRLMLTLTPVVCMLSAIAFSNVFEHYLGDDMKRENPPVEDSSDEDDKRNQGNLYDKAGKVRKHATEQEKTEEGLGPNIKSIVTMLMLMLLMMFAVHCTWVTSNAYSSPSVVLASYNHDGTRNILDDFREAYFWLRQNTDEHARVMSWWDYGYQIAGMANRTTLVDNNTWNNSHIALVGKAMSSNETAAYKIMRTLDVDYVLVIFGGVIGYSGDDINKFLWMVRIAEGEHPKDIRESDYFTPQGEFRVDKAGSPTLLNCLMYKMSYYRFGEMQLDFRTPPGFDRTRNAEIGNKDIKFKHLEEAFTSEHWLVRIYKVKAPDNRETLDHKPRVTNIFPKQKYLSKKTTKRKRGYIKNKLVFKKGKKISKKTV"
13,binds,"STT3A (protein, UniProt P46977 1-705) MTKFGFLRLSYEKQDTLLKLLILSMAAVLSFSTRLFAVLRFESVIHEFDPYFNYRTTRFLAEEGFYKFHNWFDDRAWYPLGRIIGGTIYPGLMITSAAIYHVLHFFHITIDIRNVCVFLAPLFSSFTTIVTYHLTKELKDAGAGLLAAAMIAVVPGYISRSVAGSYDNEGIAIFCMLLTYYMWIKAVKTGSICWAAKCALAYFYMVSSWGGYVFLINLIPLHVLVLMLTGRFSHRIYVAYCTVYCLGTILSMQISFVGFQPVLSSEHMAAFGVFGLCQIHAFVDYLRSKLNPQQFEVLFRSVISLVGFVLLTVGALLMLTGKISPWTGRFYSLLDPSYAKNNIPIIASVSEHQPTTWSSYYFDLQLLVFMFPVGLYYCFSNLSDARIFIIMYGVTSMYFSAVMVRLMLVLAPVMCILSGIGVSQVLSTYMKNLDISRPDKKSKKQQDSTYPIKNEVASGMILVMAFFLITYTFHSTWVTSEAYSSPSIVLSARGGDGSRIIFDDFREAYYWLRHNTPEDAKVMSWWDYGYQITAMANRTILVDNNTWNNTHISRVGQAMASTEEKAYEIMRELDVSYVLVIFGGLTGYSSDDINKFLWMVRIGGSTDTGKHIKENDYYTPTGEFRVDREGSPVLLNCLMYKMCYYRFGQVYTEAKRPPGFDRVRNAEIGNKDFELDVLEEAYTTEHWLVRIYKVKDLDNRGLSRT"
14,binds,"SPCS3 (protein, UniProt P61009 1-180) MNTVLSRANSLFAFSLSVMAALTFGCFITTAFKDRSVPVRLHVSRIMLKNVEDFTGPRERSDLGFITFDITADLENIFDWNVKQLFLYLSAEYSTKNNALNQVVLWDKIVLRGDNPKLLLKDMKTKYFFFDDGNGLKGNRNVTLTLSWNVVPNAGILPLVTGSGHVSVPFPDTYEITKSY"
15,binds,"RPN1 (protein, UniProt P04843 24-607) ASSEAPPLINEDVKRTVDLSSHLAKVTAEVVLAHLGGGSTSRATSFLLALEPELEARLAHLGVQVKGEDEEENNLEVRETKIKGKSGRFFTVKLPVALDPGAKISVIVETVYTHVLHPYPTQITQSEKQFVVFEGNHYFYSPYPTKTQTMRVKLASRNVESYTKLGNPTRSEDLLDYGPFRDVPAYSQDTFKVHYENNSPFLTITSMTRVIEVSHWGNIAVEENVDLKHTGAVLKGPFSRYDYQRQPDSGISSIRSFKTILPAAAQDVYYRDEIGNVSTSHLLILDDSVEMEIRPRFPLFGGWKTHYIVGYNLPSYEYLYNLGDQYALKMRFVDHVFDEQVIDSLTVKIILPEGAKNIEIDSPYEISRAPDELHYTYLDTFGRPVIVAYKKNLVEQHIQDIVVHYTFNKVLMLQEPLLVVAAFYILFFTVIIYVRLDFSITKDPAAEARMKVACITEQVLTLVNKRIGLYRHFDETVNRYKQSRDISTLNSGKKSLETEHKALTSEIALLQSRLKTEGSDLCDRVSEMQKLDAQVKELVLKSAVEAERLVAGKLKKDTYIENEKLISGKRQELVTKIDHILDAL"
16,binds,"GANAB (protein, UniProt Q14697 29-944) ITLAVDRSNFKTCEESSFCKRQRSIRPGLSPYRALLDSLQLGPDSLTVHLIHEVTKVLLVLELQGLQKNMTRFRIDELEPRRPRYRVPDVLVADPPIARLSVSGRDENSVELTMAEGPYKIILTARPFRLDLLEDRSLLLSVNARGLLEFEHQRAPRVSQGSKDPAEGDGAQPEETPRDGDKPEETQGKAEKDEPGAWEETFKTHSDSKPYGPMSVGLDFSLPGMEHVYGIPEHADNLRLKVTEGGEPYRLYNLDVFQYELYNPMALYGSVPVLLAHNPHRDLGIFWLNAAETWVDISSNTAGKTLFGKMMDYLQGSGETPQTDVRWMSETGIIDVFLLLGPSISDVFRQYASLTGTQALPPLFSLGYHQSRWNYRDEADVLEVDQGFDDHNLPCDVIWLDIEHADGKRYFTWDPSRFPQPRTMLERLASKRRKLVAIVDPHIKVDSGYRVHEELRNLGLYVKTRDGSDYEGWCWPGSAGYPDFTNPTMRAWWANMFSYDNYEGSAPNLFVWNDMNEPSVFNGPEVTMLKDAQHYGGWEHRDVHNIYGLYVHMATADGLRQRSGGMERPFVLARAFFAGSQRFGAVWTGDNTAEWDHLKISIPMCLSLGLVGLSFCGADVGGFFKNPEPELLVRWYQMGAYQPFFRAHAHLDTGRREPWLLPSQHNDIIRDALGQRYSLLPFWYTLLYQAHREGIPVMRPLWVQYPQDVTTFNIDDQYLLGDALLVHPVSDSGAHGVQVYLPGQGEVWYDIQSYQKHHGPQTLYLPVTLSSIPVFQRGGTIVPRWMRVRRSSECMKDDPITLFVALSPQGTAQGELFLDDGHTFNYQTRQEFLLRRFSFSGNTLVSSSADPEGHFETPIWIERVVIIGAGKPAAVVLQTKGSPESRLSFQHDPETSVLVLRKPGINVASDWSIHLR"
17,binds,"Hsp47 (protein, UniProt P50454 19-418) AEVKKPAAAAAPGTAEKLSPKAATLAERSAGLAFSLYQAMAKDQAVENILVSPVVVASSLGLVSLGGKATTASQAKAVLSAEQLRDEEVHAGLGELLRSLSNSTARNVTWKLGSRLYGPSSVSFADDFVRSSKQHYNCEHSKINFRDKRSALQSINEWAAQTTDGKLPEVTKDVERTDGALLVNAMFFKPHWDEKFHHKMVDNRGFMVTRSYTVGVMMMHRTGLYNYYDDEKEKLQIVEMPLAHKLSSLIILMPHHVEPLERLEKLLTKEQLKIWMGKMQKKAVAISLPKGVVEVTHDLQKHLAGLGLTEAIDKNKADLSRMSGKKDLYLASVFHATAFELDTDGNPFDQDIYGREELRSPKLFYADHPFIFLVRDTQSGSLLFIGRLVRPKGDKMRDEL"
18,binds,"PDIA4 (protein, UniProt P13667 21-645) VAGAEGPDEDSSNRENAIEDEEEEEEEDDDEEEDDLEVKEENGVLVLNDANFDNFVADKDTVLLEFYAPWCGHCKQFAPEYEKIANILKDKDPPIPVAKIDATSASVLASRFDVSGYPTIKILKKGQAVDYEGSRTQEEIVAKVREVSQPDWTPPPEVTLVLTKENFDEVVNDADIILVEFYAPWCGHCKKLAPEYEKAAKELSKRSPPIPLAKVDATAETDLAKRFDVSGYPTLKIFRKGRPYDYNGPREKYGIVDYMIEQSGPPSKEILTLKQVQEFLKDGDDVIIIGVFKGESDPAYQQYQDAANNLREDYKFHHTFSTEIAKFLKVSQGQLVVMQPEKFQSKYEPRSHMMDVQGSTQDSAIKDFVLKYALPLVGHRKVSNDAKRYTRRPLVVVYYSVDFSFDYRAATQFWRSKVLEVAKDFPEYTFAIADEEDYAGEVKDLGLSESGEDVNAAILDESGKKFAMEPEEFDSDTLREFVTAFKKGKLKPVIKSQPVPKNNKGPVKVVVGKTFDSIVMDPKKDVLIEFYAPWCGHCKQLEPVYNSLAKKYKGQKGLVIAKMDATANDVPSDRYKVEGFPTIYFAPSGDKKNPVKFEGGDRDLEHLSKFIEEHATKLSRTKEEL"
